From paper PMC3416822
Results are given in words; binding and its absence hold for the method and conditions named. Binding can be weak; no strength is given.

Target: TbPin1 (Trypanosoma brucei)
Experiment: NMR titration; 15N-labelled TbPin1 (initial 0.4 mM) titrated stepwise with the unlabelled phosphorylated peptide to a final molar ratio of 1:8; 2D 1H-15N HSQC after each step; 20 mM sodium phosphate, 90% H2O, 10% D2O, pH 7.0; 298 K; both purified

Question: How did the binding turn out when SSYFSGTPLEDDSD (phosphothreonine at position 7 of the peptide ([p]T, T7)) [phosphorylated peptide {SSYFSG[p]TPLEDDSD} derived from Agamous-like 24 (AGL24)] was run?
Answer: binds weakly
